These are yes or no findings as the source states them, for the method shown. In cells and extracts the contact can be indirect. Some results given as binding are weak or reduced against the parent protein; the word gives no strength.
B1: aconitase 1 (enzyme, UniProt P21399 1-889)
chain: MSNPFAHLAEPLDPVQPGKKFFNLNKLEDSRYGRLPFSIRVLLEAAIRNCDEFLVKKQDIENILHWNVTQHKNIEVPFKPARVILQDFTGVPAVVDFAAMRDAVKKLGGDPEKINPVCPADLVIDHSIQVDFNRRADSLQKNQDLEFERNRERFEFLKWGSQAFHNMRIIPPGSGIIHQVNLEYLARVVFDQDGYYYPDSLVGTDSHTTMIDGLGILGWGVGGIEAEAVMLGQPISMVLPQVIGYRLMGKPHPLVTSTDIVLTITKHLRQVGVVGKFVEFFGPGVAQLSIADRATIANMCPEYGATAAFFPVDEVSITYLVQTGRDEEKLKYIKKYLQAVGMFRDFNDPSQDPDFTQVVELDLKTVVPCCSGPKRPQDKVAVSDMKKDFESCLGAKQGFKGFQVAPEHHNDHKTFIYDNTEFTLAHGSVVIAAITSCTNTSNPSVMLGAGLLAKKAVDAGLNVMPYIKTSLSPGSGVVTYYLQESGVMPYLSQLGFDVVGYGCMTCIGNSGPLPEPVVEAITQGDLVAVGVLSGNRNFEGRVHPNTRANYLASPPLVIAYAIAGTIRIDFEKEPLGVNAKGQQVFLKDIWPTRDEIQAVERQYVIPGMFKEVYQKIETVNESWNALATPSDKLFFWNSKSTYIKSPPFFENLTLDLQPPKSIVDAYVLLNLGDSVTTDHISPAGNIARNSPAARYLTNRGLTPREFNSYGSRRGNDAVMARGTFANIRLLNRFLNKQAPQTIHLPSGEILDVFDAAERYQQAGLPLIVLAGKEYGAGSSRDWAAKGPFLLGIKAVLAESYERIHRSNLVGMGVIPLEYLPGENADALGLTGQERYTIIIPENLKPQMKVQVKLDTGKTFQAVMRFDTDVELTYFLNGGILNYMIRKMAK
B2: nucleoporin 93 (protein, UniProt Q8N1F7 1-819)
chain: MDTEGFGELLQQAEQLAAETEGISELPHVERNLQEIQQAGERLRSRTLTRTSQETADVKASVLLGSRGLDISHISQRLESLSAATTFEPLEPVKDTDIQGFLKNEKDNALLSAIEESRKRTFGMAEEYHRESMLVEWEQVKQRILHTLLASGEDALDFTQESEPSYISDVGPPGRSSLDNIEMAYARQIYIYNEKIVNGHLQPNLVDLCASVAELDDKSISDMWTMVKQMTDVLLTPATDALKNRSSVEVRMEFVRQALAYLEQSYKNYTLVTVFGNLHQAQLGGVPGTYQLVRSFLNIKLPAPLPGLQDGEVEGHPVWALIYYCMRCGDLLAASQVVNRAQHQLGEFKTWFQEYMNSKDRRLSPATENKLRLHYRRALRNNTDPYKRAVYCIIGRCDVTDNQSEVADKTEDYLWLKLNQVCFDDDGTSSPQDRLTLSQFQKQLLEDYGESHFTVNQQPFLYFQVLFLTAQFEAAVAFLFRMERLRCHAVHVALVLFELKLLLKSSGQSAQLLSHEPGDPPCLRRLNFVRLLMLYTRKFESTDPREALQYFYFLRDEKDSQGENMFLRCVSELVIESREFDMILGKLENDGSRKPGVIDKFTSDTKPIINKVASVAENKGLFEEAAKLYDLAKNADKVLELMNKLLSPVVPQISAPQSNKERLKNMALSIAERYRAQGISANKFVDSTFYLLLDLITFFDEYHSGHIDRAFDIIERLKLVPLNQESVEERVAAFRNFSDEIRHNLSEVLLATMNILFTQFKRLKGTSPSSSSRPQRVIEDRDSQLRSQARTLITFAGMIPYRTSGDTNARLVQMEVLMN

Amino acid sequences for entries named in this document (tags omitted). Residues count along the entry.
UniProt Q16602, residues 23-461: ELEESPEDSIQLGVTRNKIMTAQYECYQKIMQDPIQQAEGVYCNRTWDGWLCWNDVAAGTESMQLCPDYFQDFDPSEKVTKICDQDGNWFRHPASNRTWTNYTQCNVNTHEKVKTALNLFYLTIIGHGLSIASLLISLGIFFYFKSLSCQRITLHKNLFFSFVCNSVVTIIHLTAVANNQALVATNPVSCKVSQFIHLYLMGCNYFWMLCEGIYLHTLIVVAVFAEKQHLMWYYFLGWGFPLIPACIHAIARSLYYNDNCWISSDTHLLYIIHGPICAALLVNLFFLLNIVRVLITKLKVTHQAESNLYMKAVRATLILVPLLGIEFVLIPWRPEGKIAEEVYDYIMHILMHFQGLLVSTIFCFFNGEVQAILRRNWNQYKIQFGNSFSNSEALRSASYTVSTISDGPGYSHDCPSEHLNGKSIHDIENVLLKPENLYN
UniProt Q13557: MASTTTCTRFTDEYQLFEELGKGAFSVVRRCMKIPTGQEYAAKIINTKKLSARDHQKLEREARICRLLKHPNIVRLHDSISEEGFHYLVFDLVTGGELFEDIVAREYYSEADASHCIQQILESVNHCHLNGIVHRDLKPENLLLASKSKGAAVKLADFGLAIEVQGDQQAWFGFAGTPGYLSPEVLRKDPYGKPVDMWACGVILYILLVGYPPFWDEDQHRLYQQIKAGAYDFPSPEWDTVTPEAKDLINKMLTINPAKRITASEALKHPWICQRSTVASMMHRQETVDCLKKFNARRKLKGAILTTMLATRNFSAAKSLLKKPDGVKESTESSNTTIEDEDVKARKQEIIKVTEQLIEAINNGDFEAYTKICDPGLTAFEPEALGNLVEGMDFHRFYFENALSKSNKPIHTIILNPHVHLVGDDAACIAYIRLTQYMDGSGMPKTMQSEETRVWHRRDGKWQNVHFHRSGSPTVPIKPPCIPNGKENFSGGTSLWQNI
UniProt Q9Y5S2: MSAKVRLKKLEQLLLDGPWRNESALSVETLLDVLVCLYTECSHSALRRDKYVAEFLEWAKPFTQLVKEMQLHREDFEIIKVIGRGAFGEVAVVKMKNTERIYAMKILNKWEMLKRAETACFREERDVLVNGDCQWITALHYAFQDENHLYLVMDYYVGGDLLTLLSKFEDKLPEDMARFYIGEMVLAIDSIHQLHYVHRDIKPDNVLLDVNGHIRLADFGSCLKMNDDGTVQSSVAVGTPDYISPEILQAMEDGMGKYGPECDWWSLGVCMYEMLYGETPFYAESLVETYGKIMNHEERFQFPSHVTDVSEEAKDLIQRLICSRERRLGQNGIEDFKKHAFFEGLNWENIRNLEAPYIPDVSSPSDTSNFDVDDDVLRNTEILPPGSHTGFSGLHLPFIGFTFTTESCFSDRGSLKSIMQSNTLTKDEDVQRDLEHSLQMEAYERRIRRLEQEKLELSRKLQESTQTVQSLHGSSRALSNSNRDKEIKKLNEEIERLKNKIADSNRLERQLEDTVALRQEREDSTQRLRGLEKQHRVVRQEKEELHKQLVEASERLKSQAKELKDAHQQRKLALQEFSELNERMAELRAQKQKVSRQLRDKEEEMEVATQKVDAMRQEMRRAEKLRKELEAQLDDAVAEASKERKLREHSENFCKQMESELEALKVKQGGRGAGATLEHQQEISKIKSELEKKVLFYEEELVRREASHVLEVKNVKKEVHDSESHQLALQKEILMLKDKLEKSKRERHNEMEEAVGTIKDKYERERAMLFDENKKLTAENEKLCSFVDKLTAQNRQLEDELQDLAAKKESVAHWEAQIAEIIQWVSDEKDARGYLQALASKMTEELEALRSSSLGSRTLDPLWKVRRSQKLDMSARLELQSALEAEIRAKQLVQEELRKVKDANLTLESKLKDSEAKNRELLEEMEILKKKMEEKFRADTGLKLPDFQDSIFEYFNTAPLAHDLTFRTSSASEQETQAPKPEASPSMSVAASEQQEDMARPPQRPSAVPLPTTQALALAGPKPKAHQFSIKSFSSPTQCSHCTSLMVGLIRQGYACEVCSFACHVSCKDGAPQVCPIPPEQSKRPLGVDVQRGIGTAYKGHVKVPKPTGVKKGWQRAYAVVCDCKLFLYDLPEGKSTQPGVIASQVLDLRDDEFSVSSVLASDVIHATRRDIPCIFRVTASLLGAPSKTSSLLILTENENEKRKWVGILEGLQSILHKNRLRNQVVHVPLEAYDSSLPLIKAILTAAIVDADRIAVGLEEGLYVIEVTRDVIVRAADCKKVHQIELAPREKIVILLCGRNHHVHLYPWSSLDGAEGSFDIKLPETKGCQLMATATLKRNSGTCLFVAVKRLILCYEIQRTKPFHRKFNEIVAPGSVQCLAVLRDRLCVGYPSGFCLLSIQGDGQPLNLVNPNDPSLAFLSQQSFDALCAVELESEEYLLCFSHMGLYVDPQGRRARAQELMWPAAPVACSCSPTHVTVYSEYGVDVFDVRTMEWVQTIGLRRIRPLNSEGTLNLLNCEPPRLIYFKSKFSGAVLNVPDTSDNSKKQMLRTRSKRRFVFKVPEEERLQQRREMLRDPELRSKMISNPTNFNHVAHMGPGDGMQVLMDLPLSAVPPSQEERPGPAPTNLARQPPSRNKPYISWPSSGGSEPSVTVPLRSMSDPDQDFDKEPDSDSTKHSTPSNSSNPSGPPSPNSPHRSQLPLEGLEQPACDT

Biological target: calcitonin receptor-like receptor (human (endogenous in HDLEC)) (UniProt Q16602)
Assay: proximity ligation

Row | Molecule | binding
1 | valosin containing protein (from UniProt P55072 1-806) (enzyme) | binds
2 | calcium/calmodulin dependent protein kinase II delta (from UniProt Q13557 1-499) (enzyme) | binds
3 | serine/threonine-protein kinase MRCK beta (from UniProt Q9Y5S2 1-1711) (enzyme) | binds
4 | B1 | binds
5 | B2 | binds

Source: publication doi:10.1101/2023.04.18.537143
